Among the data in PMC6610961 are binding values, retold here.

Chains of the proteins cited; added tags and fusions are not shown.
UniProt Q9ULW0: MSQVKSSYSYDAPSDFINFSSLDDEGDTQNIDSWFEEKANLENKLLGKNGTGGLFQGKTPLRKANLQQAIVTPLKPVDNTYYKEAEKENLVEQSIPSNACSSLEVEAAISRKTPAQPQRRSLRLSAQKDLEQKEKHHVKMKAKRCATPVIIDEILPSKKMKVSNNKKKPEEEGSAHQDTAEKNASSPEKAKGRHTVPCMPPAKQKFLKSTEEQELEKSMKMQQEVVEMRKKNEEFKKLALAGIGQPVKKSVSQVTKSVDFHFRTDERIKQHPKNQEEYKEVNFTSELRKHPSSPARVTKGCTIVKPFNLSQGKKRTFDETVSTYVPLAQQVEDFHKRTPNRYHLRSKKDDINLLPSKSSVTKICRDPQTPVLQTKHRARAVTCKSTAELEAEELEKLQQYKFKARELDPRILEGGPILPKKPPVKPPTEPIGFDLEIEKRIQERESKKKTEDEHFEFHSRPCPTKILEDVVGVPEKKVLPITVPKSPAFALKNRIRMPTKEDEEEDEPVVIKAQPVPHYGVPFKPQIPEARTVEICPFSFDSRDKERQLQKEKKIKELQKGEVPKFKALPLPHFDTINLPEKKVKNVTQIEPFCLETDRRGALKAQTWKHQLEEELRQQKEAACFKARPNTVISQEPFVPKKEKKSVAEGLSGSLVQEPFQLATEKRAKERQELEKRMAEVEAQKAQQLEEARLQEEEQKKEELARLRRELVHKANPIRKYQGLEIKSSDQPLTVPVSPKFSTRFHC

No constants are given. Whether binding was seen depends on the method and setting. In cells and extracts the contact can be indirect. Some results given as binding are weak or reduced against the parent protein; the word gives no strength.

This assay has as its target GFP-CDK5 (cyclin-dependent kinase 5) (UniProt Q00535). In words: co-IP; cell lysates precipitated with GFP antibody, blotted with TPX2 antibodies; NP-40 lysis buffer.

As to “TPX2 (target protein for Xklp2) (from UniProt Q9ULW0 1-747)”, the binding entry is reported as “binds”.
